# Results of single-concentration screens

Protein sequences, listed by entry. Tags and fused reporters are not part of them. Residues count along the entry.
UniProt A4I591, 1-473: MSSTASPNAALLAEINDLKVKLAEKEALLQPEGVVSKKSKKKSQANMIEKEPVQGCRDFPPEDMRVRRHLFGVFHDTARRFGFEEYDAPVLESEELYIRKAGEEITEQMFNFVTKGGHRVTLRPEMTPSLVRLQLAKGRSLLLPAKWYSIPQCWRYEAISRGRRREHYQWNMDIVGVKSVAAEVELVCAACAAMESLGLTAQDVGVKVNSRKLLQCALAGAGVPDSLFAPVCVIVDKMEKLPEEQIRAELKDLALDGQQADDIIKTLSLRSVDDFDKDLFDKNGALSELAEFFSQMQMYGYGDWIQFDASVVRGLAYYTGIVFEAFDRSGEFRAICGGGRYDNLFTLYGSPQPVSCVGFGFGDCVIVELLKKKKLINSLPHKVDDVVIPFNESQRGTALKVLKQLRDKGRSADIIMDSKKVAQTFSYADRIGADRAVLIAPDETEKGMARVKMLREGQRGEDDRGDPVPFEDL

From ChEMBL document CHEMBL3988442, “University of Dundee, Small-Polar-MMV Screening Library” (2021).

Values are the deposited “Percent Effect”, in %.
The record does not define 0% and 100%; most values in the screen are far below 50% and negative numbers occur (in some assays of this library far below -100).
Compounds were drawn at random from those tested, without regard to their results.

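Enzyme assay of histidyl-tRNA synthetase; the read-out is not stated. Target: Histidine-tRNA ligase, Leishmania infantum (UniProt A4I591). Compounds at 30 µM. Higher reads as stronger inhibition (inferred: compounds with an IC50 in retests scored well above the rest). The assay is labelled LdHisRS but filed under L. infantum. Of about 69,000 compounds tested this way, about 410 (0.6%) reached 50% or more in at least one test.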

* O=C(NCC1CCC2(CCNCC2)O1)C1CC1 (stereo not drawn) : 23.3%
* COc1ccccc1OCCCc1cc(C)nc(N)n1 : 10.75%
* CCOc1ccccc1CNC(=O)N1CCC(Cc2cnn(C)c2)C1 (stereo not drawn) : 1.835%
* O=C(c1ccc[nH]1)N1CC2(CCN(c3nccs3)C2)C1 : 14.53%
* Cc1cc(C(F)F)nn1C(C)C(=O)NCc1nccn1C (stereo not drawn) : 14.08%
* O=C(NCCn1ccnc1C1CCOC1)c1cccnc1 (stereo not drawn) : 7.463%
* COc1ccc(CN2CC[C@H](O)[C@@H]2Cc2cnn(C)c2)cc1 : 18%
* CCC(Nc1ccc(CCN2CCCCC2)cc1)C(N)=O (stereo not drawn) : 22.89%
* CSc1ccccc1NC(=O)C1CSc2ncc(C)c(=O)n2C1 (stereo not drawn) : 10.26%
* COc1ccccc1N1CCN(C(=O)COc2c(C)occc2=O)CC1 : 0%
* CN(Cc1cccs1)C1CCC[C@@H]2CN(C(=O)c3cnccn3)C[C@H]12 (stereo partly drawn) : 8.621%
* Cc1ccc(Cl)cc1N1CCN(CC(=O)NCc2ccco2)CC1 : -31.86%
* CC(=O)N1CCc2c(nc(N(C)C)nc2NCc2cccs2)C1 : 2.564%
* CNC(=O)N1CCC2(COCc3c(C)nc(NCc4ccco4)nc32)C1 (stereo not drawn) : 19.66%
* c1csc(N2CCN(c3ncnc4sccc34)CC2)n1 : 27.06%
* O=C(c1nnn(-c2ccccc2)n1)N(CCO)CCO : 4%
* CC(C)SCc1cccc(NC(=O)NC(C)c2nc[nH]n2)c1 (stereo not drawn) : 17.58%
* Cn1cc(S(=O)(=O)N2CCCC(Cn3cncn3)C2)cn1 (stereo not drawn) : 16.44%
* CCn1cc(CN2CCC3(CC2)c2ccccc2CC3O)cn1 (stereo not drawn) : 13.11%
* CCc1ccccc1C(=O)N1CCCC1CC(=O)c1cnn(C)c1 (stereo not drawn) : 3.509%
* CCS(=O)(=O)N1CCC2(CC1)CC(Oc1ccccn1)CO2 (stereo not drawn) : 18.45%
* COc1ncccc1CNC(=O)NCCNC(=O)c1ccco1 : 22.97%
* NC(=O)C1CCN(C(=O)NCc2cccnc2OC2CCCC2)C1 (stereo not drawn) : 23.64%
* O=S(=O)(NC1CCOC1)c1ccc(C(F)(F)F)nc1 (stereo not drawn) : 5.31%
* CC(C)(CO)N1CCN(S(=O)(=O)CCCF)CC1 : 12.64%
* CCn1cc(SCC(=O)N2CCCC(O)(CO)C2)c2ccccc21 (stereo not drawn) : 8.333%
* CCN(CCn1cccn1)Cc1nc(-c2cc(F)ccc2F)oc1C : -6.061%
* Cc1nc(Nc2nnc(C)s2)cc(C2CCCN2)n1 (stereo not drawn) : 13.04%
* CC(=O)NC[C@]1(O)CCN(C(=O)c2ccc3c(c2)OCO3)C[C@H]1O : 15.94%
* Cc1nn(C)cc1-c1ccnc(N(C)Cc2ccon2)n1 : 19.35%
* Cc1cc(=O)c2cc(F)ccc2n1CC(=O)O : 10.62%
* Cc1ccc(N2CC[C@H](OCC3CC3)[C@@H]2Cc2cnn(C)c2)nn1 : 23.08%

For reference, 2 entries once more:

compound	Percent Effect
Cc1ccc(N2CC[C@H](OCC3CC3)[C@@H]2Cc2cnn(C)c2)nn1	23.08%
CCS(=O)(=O)N1CCC2(CC1)CC(Oc1ccccn1)CO2 (stereo not drawn)	18.45%